These results are taken from paper PMC11400633 (Protein Science : A Publication of the Protein Society, 2024).

The data set can be described thus: general procedure: Fmoc solid-phase peptide synthesis; Wang resin (0.3 g, 1.1 mmol/g loading capacity); DCC/HOBT. The following applies: for final HPLC purity: analytical RP HPLC (Agilent 1200, Phenomenex Gemini C18).
[1] abbreviates: whole synthesis, scale of the general procedure 0.3 g resin.

Plain letter strings leave the end groups untold.

For GQNGISDL, under setting [1], the “final HPLC purity” value is given as 97% and the isolated yield was 85%.
With c[isoKSDL], for the setting “late stage modification step”, the “final HPLC purity” value is given as 96%.
